Measurements: PMC10237651, “Arabidopsis FIN219/JAR1 interacts with phytochrome A under far-red light and jasmonates in regulating hypocotyl elongation via a functional demand manner” (PLOS Genetics, 2023)
These are yes or no findings as the source states them, for the method shown. For some assays here: In cells and extracts the contact can be indirect. Some results given as binding are weak or reduced against the parent protein; the word gives no strength. For some assays here: Where a sequence is shown, tags or fusion partners need not be part of it.

T1: full-length FIN219/JAR1, yeast two-hybrid fusion (Arabidopsis) (UniProt Q9SKE2)
T1 sequence: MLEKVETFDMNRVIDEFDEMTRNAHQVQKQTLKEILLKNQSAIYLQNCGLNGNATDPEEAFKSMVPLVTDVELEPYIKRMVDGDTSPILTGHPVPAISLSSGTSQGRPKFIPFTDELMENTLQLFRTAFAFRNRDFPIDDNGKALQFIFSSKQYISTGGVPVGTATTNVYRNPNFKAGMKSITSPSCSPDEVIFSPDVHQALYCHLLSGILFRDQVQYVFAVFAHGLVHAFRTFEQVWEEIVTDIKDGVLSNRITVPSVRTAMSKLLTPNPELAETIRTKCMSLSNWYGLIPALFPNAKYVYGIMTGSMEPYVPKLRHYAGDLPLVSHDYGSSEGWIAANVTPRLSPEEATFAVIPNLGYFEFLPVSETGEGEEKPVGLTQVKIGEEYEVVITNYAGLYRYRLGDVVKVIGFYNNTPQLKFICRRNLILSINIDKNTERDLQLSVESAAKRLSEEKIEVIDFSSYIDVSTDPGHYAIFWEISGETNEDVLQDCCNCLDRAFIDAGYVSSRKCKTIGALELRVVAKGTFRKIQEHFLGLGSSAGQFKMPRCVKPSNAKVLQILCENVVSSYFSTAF

T2: phytochrome A (phyA), endogenous in Arabidopsis seedlings (Arabidopsis (endogenous in Col-0 seedlings)), P14712
T2 chain: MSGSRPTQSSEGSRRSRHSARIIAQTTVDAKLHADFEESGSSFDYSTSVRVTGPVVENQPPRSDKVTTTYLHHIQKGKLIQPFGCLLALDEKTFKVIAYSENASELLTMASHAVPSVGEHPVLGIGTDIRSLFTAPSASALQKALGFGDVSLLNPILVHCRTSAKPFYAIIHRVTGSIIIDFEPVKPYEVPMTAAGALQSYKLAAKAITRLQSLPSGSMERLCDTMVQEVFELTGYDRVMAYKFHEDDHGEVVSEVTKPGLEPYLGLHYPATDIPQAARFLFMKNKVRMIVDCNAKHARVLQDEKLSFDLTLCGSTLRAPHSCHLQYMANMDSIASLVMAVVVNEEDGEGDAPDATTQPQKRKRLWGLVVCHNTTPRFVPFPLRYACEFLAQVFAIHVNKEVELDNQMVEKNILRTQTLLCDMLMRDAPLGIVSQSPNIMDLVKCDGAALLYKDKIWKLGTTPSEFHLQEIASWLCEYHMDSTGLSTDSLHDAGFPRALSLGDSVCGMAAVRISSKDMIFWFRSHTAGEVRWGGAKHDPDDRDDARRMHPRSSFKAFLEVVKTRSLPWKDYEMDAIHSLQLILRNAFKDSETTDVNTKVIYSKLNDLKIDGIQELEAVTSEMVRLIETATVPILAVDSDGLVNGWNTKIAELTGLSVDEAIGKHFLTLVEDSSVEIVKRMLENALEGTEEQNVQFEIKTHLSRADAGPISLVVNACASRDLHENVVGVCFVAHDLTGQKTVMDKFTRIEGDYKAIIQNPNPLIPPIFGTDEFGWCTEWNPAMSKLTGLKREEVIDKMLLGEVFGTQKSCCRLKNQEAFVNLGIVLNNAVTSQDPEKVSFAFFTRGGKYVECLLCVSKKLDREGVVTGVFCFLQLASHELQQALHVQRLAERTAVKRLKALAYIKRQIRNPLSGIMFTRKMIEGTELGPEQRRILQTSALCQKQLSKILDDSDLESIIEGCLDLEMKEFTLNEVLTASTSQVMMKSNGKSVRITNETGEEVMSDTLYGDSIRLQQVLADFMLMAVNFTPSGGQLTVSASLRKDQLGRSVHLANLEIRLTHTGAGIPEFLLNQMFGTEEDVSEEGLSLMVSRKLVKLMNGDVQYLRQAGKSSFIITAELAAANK

B1: full-length PHYA (phytochrome A apoprotein), yeast two-hybrid fusion (protein, UniProt P14712 1-1122)
chain: T2 chain
B2: CONSTITUTIVE PHOTOMORPHOGENIC 1 (COP1), endogenous in Arabidopsis seedlings, P43254 1-675 (protein)
chain: MEEISTDPVVPAVKPDPRTSSVGEGANRHENDDGGSGGSEIGAPDLDKDLLCPICMQIIKDAFLTACGHSFCYMCIITHLRNKSDCPCCSQHLTNNQLYPNFLLDKLLKKTSARHVSKTASPLDQFREALQRGCDVSIKEVDNLLTLLAERKRKMEQEEAERNMQILLDFLHCLRKQKVDELNEVQTDLQYIKEDINAVERHRIDLYRARDRYSVKLRMLGDDPSTRNAWPHEKNQIGFNSNSLSIRGGNFVGNYQNKKVEGKAQGSSHGLPKKDALSGSDSQSLNQSTVSMARKKRIHAQFNDLQECYLQKRRQLADQPNSKQENDKSVVRREGYSNGLADFQSVLTTFTRYSRLRVIAEIRHGDIFHSANIVSSIEFDRDDELFATAGVSRCIKVFDFSSVVNEPADMQCPIVEMSTRSKLSCLSWNKHEKNHIASSDYEGIVTVWDVTTRQSLMEYEEHEKRAWSVDFSRTEPSMLVSGSDDCKVKVWCTRQEASVINIDMKANICCVKYNPGSSNYIAVGSADHHIHYYDLRNISQPLHVFSGHKKAVSYVKFLSNNELASASTDSTLRLWDVKDNLPVRTFRGHTNEKNFVGLTVNSEYLACGSETNEVYVYHKEITRPVTSHRFGSPDMDDAEEEAGSYFISAVCWKSDSPTMLTANSQGTIKVLVLAA

Key:
[1] = target: T1, full-length FIN219/JAR1, yeast two-hybrid fusion (Arabidopsis); experiment: two-hybrid; yeast strain AH109; SD agar without His, Leu, Trp and adenine, X-α-gal, 30°C; PHYA deletions as prey with FIN219 as bait (S4A Fig), FIN219 deletions as prey with PHYA as bait (S4B Fig)
[2] = target: T2, phytochrome A (phyA), endogenous in …; experiment: co-IP; protein extracts (2 mg) of Arabidopsis seedlings (Col-0, NTOX, CTOX) precipitated with PHYA monoclonal antibody beads, 4 h at 4°C; blots for PHYA, FIN219, COP1, GUS; seedlings dark-grown then 3 h FR, or 3 d dark or cFR with 50 μM MeJA, or 3 d FR light; details: remark: other sources report otherwise

| Binder | binding [1] | binding [2] |
| --- | --- | --- |
| B1 | binds |  |
| B2 |  | binds |
